Results on 8 substances are retold here after paper PMC6403405.

Sequences of proteins named here, by UniProt entry; tags and fusion partners are left off. A change or cut given only in a name is not applied to a line headed by its entry. Residues count along the entry.
UniProt Q15797: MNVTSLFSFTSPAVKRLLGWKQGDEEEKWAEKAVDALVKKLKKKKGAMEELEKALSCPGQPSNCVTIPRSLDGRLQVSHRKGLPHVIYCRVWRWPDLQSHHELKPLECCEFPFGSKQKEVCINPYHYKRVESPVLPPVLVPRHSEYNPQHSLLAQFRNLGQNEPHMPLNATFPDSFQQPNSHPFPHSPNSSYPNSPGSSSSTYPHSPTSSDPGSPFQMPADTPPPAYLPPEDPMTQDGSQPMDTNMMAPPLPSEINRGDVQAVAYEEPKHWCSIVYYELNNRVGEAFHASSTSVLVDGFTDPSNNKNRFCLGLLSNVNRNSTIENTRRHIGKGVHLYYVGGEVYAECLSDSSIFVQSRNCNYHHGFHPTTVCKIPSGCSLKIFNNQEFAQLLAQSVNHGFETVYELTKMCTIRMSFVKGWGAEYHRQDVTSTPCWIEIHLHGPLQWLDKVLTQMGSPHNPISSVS
UniProt P05556: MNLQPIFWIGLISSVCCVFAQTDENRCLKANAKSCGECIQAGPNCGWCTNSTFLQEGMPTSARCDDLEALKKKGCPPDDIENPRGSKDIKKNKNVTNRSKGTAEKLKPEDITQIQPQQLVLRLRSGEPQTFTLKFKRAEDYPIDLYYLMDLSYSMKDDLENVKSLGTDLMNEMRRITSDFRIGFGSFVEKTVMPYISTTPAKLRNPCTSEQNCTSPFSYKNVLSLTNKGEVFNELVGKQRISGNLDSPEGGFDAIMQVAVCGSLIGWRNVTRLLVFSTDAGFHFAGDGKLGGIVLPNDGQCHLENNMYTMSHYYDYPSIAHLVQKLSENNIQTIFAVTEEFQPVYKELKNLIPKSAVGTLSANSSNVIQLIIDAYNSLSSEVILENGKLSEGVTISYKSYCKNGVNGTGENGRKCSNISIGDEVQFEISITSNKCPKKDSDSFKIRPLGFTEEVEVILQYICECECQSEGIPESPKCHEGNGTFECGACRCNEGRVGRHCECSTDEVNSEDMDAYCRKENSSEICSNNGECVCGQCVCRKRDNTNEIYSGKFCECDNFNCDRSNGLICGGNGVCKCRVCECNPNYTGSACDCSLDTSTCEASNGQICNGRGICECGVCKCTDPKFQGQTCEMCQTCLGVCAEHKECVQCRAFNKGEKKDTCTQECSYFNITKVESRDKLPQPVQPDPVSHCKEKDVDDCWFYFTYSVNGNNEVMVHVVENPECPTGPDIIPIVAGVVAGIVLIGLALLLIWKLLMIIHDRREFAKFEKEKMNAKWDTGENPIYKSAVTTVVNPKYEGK
UniProt P36894, residues 24-532: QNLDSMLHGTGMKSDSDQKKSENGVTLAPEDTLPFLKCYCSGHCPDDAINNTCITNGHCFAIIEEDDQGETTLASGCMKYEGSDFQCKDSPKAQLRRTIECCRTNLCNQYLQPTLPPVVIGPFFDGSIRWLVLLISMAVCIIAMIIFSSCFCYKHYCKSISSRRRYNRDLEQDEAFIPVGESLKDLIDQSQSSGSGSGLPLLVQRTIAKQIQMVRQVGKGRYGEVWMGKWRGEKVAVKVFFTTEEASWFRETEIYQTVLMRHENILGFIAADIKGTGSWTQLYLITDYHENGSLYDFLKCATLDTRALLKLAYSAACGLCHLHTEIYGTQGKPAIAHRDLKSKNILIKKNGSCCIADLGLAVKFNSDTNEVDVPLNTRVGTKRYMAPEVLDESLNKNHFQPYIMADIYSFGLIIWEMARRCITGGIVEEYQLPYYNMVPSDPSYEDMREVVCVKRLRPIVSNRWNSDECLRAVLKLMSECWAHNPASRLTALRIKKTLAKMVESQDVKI
UniProt P27361: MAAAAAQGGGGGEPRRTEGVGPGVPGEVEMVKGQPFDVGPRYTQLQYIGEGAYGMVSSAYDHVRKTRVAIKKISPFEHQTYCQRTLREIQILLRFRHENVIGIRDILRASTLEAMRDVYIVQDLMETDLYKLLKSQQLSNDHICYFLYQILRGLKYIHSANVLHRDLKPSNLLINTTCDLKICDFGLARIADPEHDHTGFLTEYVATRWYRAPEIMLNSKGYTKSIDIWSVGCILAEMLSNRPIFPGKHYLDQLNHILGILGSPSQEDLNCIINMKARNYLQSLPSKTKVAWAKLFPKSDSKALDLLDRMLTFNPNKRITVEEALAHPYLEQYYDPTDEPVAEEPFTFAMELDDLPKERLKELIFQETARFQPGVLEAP
UniProt Q13485: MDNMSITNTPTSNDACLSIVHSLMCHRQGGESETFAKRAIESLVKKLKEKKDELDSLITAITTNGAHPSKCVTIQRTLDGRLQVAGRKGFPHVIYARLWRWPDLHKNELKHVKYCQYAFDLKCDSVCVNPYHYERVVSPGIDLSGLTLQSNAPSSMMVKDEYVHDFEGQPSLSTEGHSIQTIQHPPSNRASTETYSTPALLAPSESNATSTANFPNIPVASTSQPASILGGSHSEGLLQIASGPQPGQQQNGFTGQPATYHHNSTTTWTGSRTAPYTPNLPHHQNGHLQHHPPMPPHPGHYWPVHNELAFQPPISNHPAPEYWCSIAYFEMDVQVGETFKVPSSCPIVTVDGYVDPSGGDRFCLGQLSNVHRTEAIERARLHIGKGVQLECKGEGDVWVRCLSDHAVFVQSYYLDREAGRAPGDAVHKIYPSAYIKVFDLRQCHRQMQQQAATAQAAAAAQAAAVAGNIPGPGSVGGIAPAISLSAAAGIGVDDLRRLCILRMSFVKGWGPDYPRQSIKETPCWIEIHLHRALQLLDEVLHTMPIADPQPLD
UniProt P28482: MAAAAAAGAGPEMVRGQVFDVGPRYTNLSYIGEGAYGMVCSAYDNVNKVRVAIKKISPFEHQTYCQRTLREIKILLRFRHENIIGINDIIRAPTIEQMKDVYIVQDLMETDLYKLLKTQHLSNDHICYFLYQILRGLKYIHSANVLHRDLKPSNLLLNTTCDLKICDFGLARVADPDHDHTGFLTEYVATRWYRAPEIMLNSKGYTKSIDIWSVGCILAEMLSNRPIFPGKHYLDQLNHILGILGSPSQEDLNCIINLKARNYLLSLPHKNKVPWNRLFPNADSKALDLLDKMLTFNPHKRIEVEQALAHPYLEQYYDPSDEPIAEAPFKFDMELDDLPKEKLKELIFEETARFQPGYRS
UniProt O00238, residues 14-502: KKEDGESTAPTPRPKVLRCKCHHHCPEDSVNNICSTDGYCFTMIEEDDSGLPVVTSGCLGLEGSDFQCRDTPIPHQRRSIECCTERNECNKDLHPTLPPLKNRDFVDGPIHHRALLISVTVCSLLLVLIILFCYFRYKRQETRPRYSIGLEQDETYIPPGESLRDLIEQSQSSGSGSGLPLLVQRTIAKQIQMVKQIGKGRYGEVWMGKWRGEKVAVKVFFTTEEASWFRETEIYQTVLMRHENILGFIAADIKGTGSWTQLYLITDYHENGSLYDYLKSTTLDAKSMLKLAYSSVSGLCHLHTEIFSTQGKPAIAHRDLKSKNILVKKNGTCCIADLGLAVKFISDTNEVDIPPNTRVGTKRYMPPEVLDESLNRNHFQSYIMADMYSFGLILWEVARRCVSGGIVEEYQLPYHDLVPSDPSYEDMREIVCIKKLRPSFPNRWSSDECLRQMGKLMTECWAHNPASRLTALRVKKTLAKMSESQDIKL

Assay [1] has as its target SMAD1 (human (endogenous in 293T)) (UniProt Q15797). As to the kind of experiment: co-IP; endogenous proteins of 293T extracts; specific antibody and protein G agarose overnight at 4 °C; lysis buffer 150 mmol/L NaCl, 20 mmol/L HEPES, 1 mmol/L EDTA, 1 mmol/L EGTA, 10% glycerol, pH 7.4, 0.1% NP-40; seven washes; both directions; cells treated with 100 μg/mL COL2A1 or vehicle for 1 h, in some panels pretreated with 10 μg/mL ITGB1 blocking antibody, treated with BMP2 or COL2A1 silenced.

The target of a further assay is SMAD1-Flag (UniProt Q15797). Description: co-IP; 293T cells transfected with SMAD1-Flag and ITGB1-HA; anti-Flag or anti-HA affinity agarose overnight at 4 °C; seven washes; immunoblot with anti-HA and anti-Flag. A general note: Immunoblotting shows a protein as a band on a membrane.
For another assay, the target named is ITGB1-HA (UniProt P05556). As to the kind of experiment: pull-down; purified SMAD1-Flag incubated with ITGB1-HA linked to HA affinity agarose beads for 4 h at 4 °C, bead washing and immunoblotting; only the binder purified.

Results are given in words; binding and its absence hold for the method and conditions named. In cells and extracts the contact can be indirect. Some entries that bind do so weakly or less than the wild type.

Take “BMPR1A (from UniProt P36894 24-532) (receptor)”: the binding entry in assay [1] is recorded as “binds”.
With “integrin β1 (ITGB1) (from UniProt P05556 21-798) (receptor)”, the binding result in assay [1] was “binds”.
On the same count and under the same terms, under “ERK1 (from UniProt P27361 1-379) (enzyme)” stands “binds”; under SMAD4 (from UniProt Q13485 1-552), “binds”; under “ERK2 (from UniProt P28482 1-360) (enzyme)”, “binds”.
“ITGB1-HA (from UniProt P05556 21-798) (receptor)”: in the assay with SMAD1-Flag, the binding entry is “binds”.
With “BMPR1B (from UniProt O00238 14-502) (receptor)”, the binding entry in assay [1] is given as “binds”.
Turning to SMAD1-Flag (from UniProt Q15797 1-465), in the assay with ITGB1-HA, the binding result was “binds”.
